The nature of this data set: HPLC monitoring of the reaction of iminosydnones with TMTH in PBS buffer. Type of data set: physicochemical. The note with it: after 30 min; 100 μM in PBS buffer (pH 7.4), 150 μM TMTH.

The structures appear in SMILES notation.

With `CC(=O)[N-]c1c[n+](-c2ccccc2)no1` [Im2], the “extent of reaction with TMTH” value was “almost complete reaction”.
With `Cc1ccc(NC(=O)[N-]c2c[n+](-c3ccccc3)no2)cc1` [Im5] the entry was “almost complete reaction”.

These data come from patent US20190144401A1, “IMINOSYDNONE DERIVATIVES FOR CONJUGATION AND RELEASE OF COMPOUNDS OF INTEREST” (UNIVERSITE DE STRASBOURG, priority 2014, published 2019).
